The values that follow come from article PMC2873443.

For at least one entry, the source does not settle the construct or the ends of the probe. At least one result comes from cells or an extract, where the contact may be indirect.

The data set deals with NF-kB p65 (RelA), subunit of p50-p65 + NF-kB p50, subunit of p50-p65. Kind of data set: EMSA supershift. As to conditions: nuclear extract, basal and PMA-induced, basal higher in K562/Adr; EMSA: nuclear extract incubated 25 min with 32P probe; 6% PAGE, 0.5x TBE pH 8; temperature and salt not stated; protein in an extract; label: 32P (Klenow, [alpha-32P]-dCTP). A general note: Mobility shift assays separate free from complexed probe on a gel.

Consider “AGCTATGTGGGTTTTCCCATGAGC (double strand) [IL6 promoter NF-kB oligonucleotide]”, for which the binding result is reported as “binds”.
